These are yes or no findings as the source states them, for the method shown. Some entries that bind do so weakly or less than the wild type.
Molecular target: His6-Caspase 8 (human Caspase 8) (human) (UniProt Q14790)
Assay: AlphaScreen or HTRF; both purified

Sequences of proteins named here, by UniProt entry; tags and fusion partners are left off.
UniProt Q14790: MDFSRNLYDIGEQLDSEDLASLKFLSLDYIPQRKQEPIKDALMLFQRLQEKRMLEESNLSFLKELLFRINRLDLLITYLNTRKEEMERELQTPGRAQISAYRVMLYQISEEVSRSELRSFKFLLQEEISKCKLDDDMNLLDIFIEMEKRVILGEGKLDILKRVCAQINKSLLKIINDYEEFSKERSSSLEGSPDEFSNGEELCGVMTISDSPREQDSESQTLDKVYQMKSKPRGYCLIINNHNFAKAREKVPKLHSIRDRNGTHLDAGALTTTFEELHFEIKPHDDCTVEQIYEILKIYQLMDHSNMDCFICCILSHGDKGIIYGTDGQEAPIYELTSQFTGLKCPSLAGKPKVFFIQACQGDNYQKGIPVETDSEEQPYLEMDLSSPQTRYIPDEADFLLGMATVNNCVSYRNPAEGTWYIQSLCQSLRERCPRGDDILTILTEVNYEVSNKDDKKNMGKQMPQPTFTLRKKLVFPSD
UniProt P03126: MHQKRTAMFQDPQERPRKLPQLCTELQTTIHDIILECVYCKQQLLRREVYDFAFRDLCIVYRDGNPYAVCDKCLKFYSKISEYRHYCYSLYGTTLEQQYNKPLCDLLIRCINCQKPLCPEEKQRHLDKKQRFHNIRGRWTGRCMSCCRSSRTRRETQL

GST-E6 (full-length HPV E6) (from UniProt P03126 1-158)
binding: binds

— article PMC7984827, “A high-content AlphaScreen™ identifies E6-specific small molecule inhibitors as potential therapeutics for HPV^+ head and neck squamous cell carcinomas” (Oncotarget, 2021)
